Results as given in article PMC5964327.

Protein sequences, listed by entry. Tags and fused reporters are not part of them. Lines headed by an entry give the natural chain unless they say otherwise; changes in a name come on top.
UniProt Q6ZWH5: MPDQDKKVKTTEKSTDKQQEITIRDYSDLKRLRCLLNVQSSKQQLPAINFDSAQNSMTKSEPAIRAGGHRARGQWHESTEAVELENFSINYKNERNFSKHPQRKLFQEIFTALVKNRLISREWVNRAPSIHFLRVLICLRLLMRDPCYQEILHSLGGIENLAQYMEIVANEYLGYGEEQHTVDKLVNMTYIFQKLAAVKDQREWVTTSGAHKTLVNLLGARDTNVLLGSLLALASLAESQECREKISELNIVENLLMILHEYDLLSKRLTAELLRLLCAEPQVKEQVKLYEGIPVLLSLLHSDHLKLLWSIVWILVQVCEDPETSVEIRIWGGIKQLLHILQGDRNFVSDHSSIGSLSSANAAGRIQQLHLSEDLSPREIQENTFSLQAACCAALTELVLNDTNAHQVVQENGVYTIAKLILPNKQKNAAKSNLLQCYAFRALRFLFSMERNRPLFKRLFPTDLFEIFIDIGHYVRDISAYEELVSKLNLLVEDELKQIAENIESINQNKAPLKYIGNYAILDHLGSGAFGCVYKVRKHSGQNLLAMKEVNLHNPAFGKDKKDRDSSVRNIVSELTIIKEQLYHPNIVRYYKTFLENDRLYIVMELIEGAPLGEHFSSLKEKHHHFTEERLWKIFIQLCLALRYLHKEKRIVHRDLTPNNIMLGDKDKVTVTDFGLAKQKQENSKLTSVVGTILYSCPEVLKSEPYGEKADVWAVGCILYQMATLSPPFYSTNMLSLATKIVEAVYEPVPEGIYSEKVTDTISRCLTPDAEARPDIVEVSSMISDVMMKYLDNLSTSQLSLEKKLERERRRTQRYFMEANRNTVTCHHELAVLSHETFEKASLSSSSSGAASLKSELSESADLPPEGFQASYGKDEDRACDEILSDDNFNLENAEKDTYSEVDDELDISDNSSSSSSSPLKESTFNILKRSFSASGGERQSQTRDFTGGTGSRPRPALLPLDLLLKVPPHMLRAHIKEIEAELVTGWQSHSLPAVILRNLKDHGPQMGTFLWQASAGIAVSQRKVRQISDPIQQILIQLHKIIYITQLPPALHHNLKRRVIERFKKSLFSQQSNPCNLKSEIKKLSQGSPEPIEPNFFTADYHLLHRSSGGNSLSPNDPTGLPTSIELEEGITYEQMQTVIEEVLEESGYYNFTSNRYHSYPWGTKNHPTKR
UniProt Q9UNE7: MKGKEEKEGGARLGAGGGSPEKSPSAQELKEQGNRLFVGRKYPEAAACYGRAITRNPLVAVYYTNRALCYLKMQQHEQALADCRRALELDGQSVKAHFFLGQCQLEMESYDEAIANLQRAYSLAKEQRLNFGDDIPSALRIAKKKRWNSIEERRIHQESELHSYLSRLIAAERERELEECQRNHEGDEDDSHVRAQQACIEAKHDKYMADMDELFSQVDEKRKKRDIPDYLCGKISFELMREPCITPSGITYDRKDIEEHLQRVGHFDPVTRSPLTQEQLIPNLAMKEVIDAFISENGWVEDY

Target: NEK10-flag T812A mutant (human) (UniProt Q6ZWH5)
Assay: co-IP; cells co-transfected with NEK10-flag (wild type or T812A), HSP70-V5 and CHIP-myc, or endogenous HSP70 and CHIP; anti-flag IP, control IgG; MG132 20 µM 8 h, or serum deprived 24 h and untreated or stimulated with FSK; immunoblot

With “CHIP-myc (wild type) (from UniProt Q9UNE7 1-303) (enzyme)” the binding was “binds”.

No constants are given. Whether binding was seen depends on the method and setting. Binding seen in cells or lysates may run through a third protein. Binding calls can cover weak binding; strength is not graded here.
